{
  "source": "PubChem BioAssay AID652042",
  "about": "(Broad Institute, 2013)",
  "note": "The campaign covered roughly 1,100 compounds. About 350 (32%) were called active. How the calls were made is not given here. The list shows a part of the results, in another mix than the full data. Potency and affinity values are given separately.",
  "data": [
    {"assay": "viability loss in CEM21 cells – cell-based, CellTiter-Glo luminescence, cherry-picked, cytotoxicity control for viral fusion inhibitor project, dose response (AID 652042)", "settings": "CellTiter-Glo ATP luminescence, 24 h; at 35 µM (top of the series)", "values": [
      {"compound": "CCC(=NCc1ccc(F)cc1)c1c(O)n(C)c(=O)n(C)c1=O", "activity change, negative = cytotoxicity": "inactive: -10.8%"},
      {"compound": "COc1ccc(-n2c(O)c(C(C)=NCCCn3ccnc3)c(=O)[nH]c2=O)cc1", "activity change, negative = cytotoxicity": "inactive: -7.79%"},
      {"compound": "CC(Cc1ccc(O)cc1)NCC(O)c1cc(O)cc(O)c1", "note": "(stereo not drawn)", "activity change, negative = cytotoxicity": "inactive: 8.94%"},
      {"compound": "Cn1nc(-c2ccc(OCC(=O)N3CCN(Cc4ccccc4)CC3)cc2)c2ccccc2c1=O", "activity change, negative = cytotoxicity": "inactive: -2.4%"},
      {"compound": "O=c1c2ccccc2nc(CN2CCCCCC2)n1-c1ccc(F)cc1", "activity change, negative = cytotoxicity": "inactive: -8.4%"},
      {"compound": "CC[C@@]1(O)C(=O)OCc2c1cc1n(c2=O)Cc2cc3c(NC(=O)CN)cccc3nc2-1", "activity change, negative = cytotoxicity": "inactive: -30.1%"},
      {"compound": "O=C(Nc1ccc(C(F)(F)F)cc1)c1cccn(Cc2ccc3c(c2)OC(F)(F)O3)c1=O", "activity change, negative = cytotoxicity": "inactive: -19.7%"},
      {"compound": "COc1ccc(OC(=O)N(C)C[C@@H]2OCc3ccccc3-c3c(n(C)c4ccccc34)C(=O)N([C@H](C)CO)C[C@@H]2C)cc1", "activity change, negative = cytotoxicity": "inactive: -18.2%"},
      {"compound": "CCC(=NCCc1c[nH]c2ccccc12)c1c(O)n(C)c(=O)n(C)c1=O", "activity change, negative = cytotoxicity": "inactive: -26.7%"},
      {"compound": "O=C(Nc1cccc(OC(=O)N2CCOCC2)c1)N1CCOCC1", "activity change, negative = cytotoxicity": "inactive: -0.601%"},
      {"compound": "CC(C)NS(=O)(=O)c1ccc(OCC(=O)N2CCN(Cc3ccc4c(c3)OCO4)CC2)c(Cl)c1", "activity change, negative = cytotoxicity": "inactive: -18.8%"},
      {"compound": "O=c1cccc2n1CC1CC2CN(c2nc(N3CCCCC3)nc(N3CCCCC3)n2)C1", "note": "(stereo not drawn)", "activity change, negative = cytotoxicity": "inactive: -5.53%"},
      {"compound": "Cc1nnc(SCc2nc3ccccc3c(=O)n2-c2ccccc2Cl)n1N", "activity change, negative = cytotoxicity": "inactive: 0.697%"}
    ]}
  ]
}
